# From article PMC8973297, “Synthesis and evaluation of new chalcones and oximes as anticancer agents” (RSC Advances, 2022)
# Tested on: Huvec
# Assay: In vitro cytotoxicity in normal human umbilical vein endothelial cells (MTT)
# Type: cell-based
# Protocol: To see how harmful the target compounds were to normal cells, Huvec cells were chosen and treated with all of the compounds at the same time and in the same way as previously reported.[6,27] […] The in vitro therapeutic index (IVTI) was then calculated. It was determined by comparing the cytotoxicity activity (IC50) of compounds against MCF-7 cells, which were the most sensitive to the test compounds, to that of compounds against Huvec cells. IVTI was above 7 for all compounds.
# All of the cell lines that were used were grown as described. A new medium was put in place after 24 hours. […] In order to make a stock solution of 10 mM, all of the compounds were mixed with DMSO. The final solutions were made by diluting the stock solution with the right volume of liquid in the media, keeping the final DMSO content at 0.5 percent. In every case, a triplicate was always made on the same plate. After 72 hours, 0.25 mg mL^−1 of MTT was added and incubated for 3 hours. The medium was taken out, and DMSO was added to dissolve the formazan crystals that were in it. To figure out how much the formazan absorbs, an ELISA plate reader was used to measure the absorbance at 570 nm. The background absorbance was measured at 690 nm. This is how the 690 nm background absorbance was taken out of the values at 570 nm. The average of the three repeats for each condition was found. In order to make the data easier to read, it was compared to the DMSO control cells that had 100% survival rate. The curves were made with GraphPad Prism, and the IC50 values were found from the plots.
structure (smiles),measurement,value
"Cc1nc(C)c(/C=C/C(=O)c2cc3ccccc3o2)nc1C [Compound 8c, (E)-1-(Benzofuran-2-yl)-3-(3,5,6-trimethylpyrazin-2-yl)prop-2-en-1-one]","IVTI, in vitro therapeutic index (Huvec IC50/MCF-7 IC50)",7.91
"Cc1nc(C)c(/C=C/C(=O)c2ccc(-c3ccco3)cc2)nc1C [Compound 9a, (E)-1-(4-(Furan-2-yl)phenyl)-3-(3,5,6-trimethylpyrazin-2-yl)prop-2-en-1-one]","IVTI, in vitro therapeutic index (Huvec IC50/MCF-7 IC50)",10.58
"Cc1nc(C)c(/C=C/C(=N/O)c2cc3ccccc3o2)nc1C [Compound 10c, (1Z,2E)-1-(Benzofuran-2-yl)-3-(3,5,6-trimethylpyrazin-2-yl)prop-2-en-1-one oxime]","IVTI, in vitro therapeutic index (Huvec IC50/MCF-7 IC50)",16.29
"Cc1ccc(-c2ccc(C(=O)/C=C/c3nc(C)c(C)nc3C)cc2)o1 [Compound 9b, (E)-1-(4-(5-Methylfuran-2-yl)phenyl)-3-(3,5,6-trimethylpyrazin-2-yl)prop-2-en-1-one]","IVTI, in vitro therapeutic index (Huvec IC50/MCF-7 IC50)",8.11
"Cc1nc(C)c(/C=C/C(=O)c2ccc(-c3cc4ccccc4o3)cc2)nc1C [Compound 9c, (E)-1-(4-(Benzofuran-2-yl)phenyl)-3-(3,5,6-trimethylpyrazin-2-yl)prop-2-en-1-one]","IVTI, in vitro therapeutic index (Huvec IC50/MCF-7 IC50)",7.25
"Cc1ccc(C(=O)/C=C/c2nc(C)c(C)nc2C)s1 [Compound 8f, (E)-1-(5-Methylthiophen-2-yl)-3-(3,5,6-trimethylpyrazin-2-yl)prop-2-en-1-one]","IVTI, in vitro therapeutic index (Huvec IC50/MCF-7 IC50)",11.83
"Cc1nc(C)c(/C=C/C(=N/O)c2cc3ccccc3s2)nc1C [Compound 10g, (1Z,2E)-1-(Benzo[b]thiophen-2-yl)-3-(3,5,6-trimethylpyrazin-2-yl)prop-2-en-1-one oxime]","IVTI, in vitro therapeutic index (Huvec IC50/MCF-7 IC50)",17.58
"Cc1nc(C)c(/C=C/C(=N/O)c2cccs2)nc1C [Compound 10e, (1Z,2E)-1-(Thiophen-2-yl)-3-(3,5,6-trimethylpyrazin-2-yl)prop-2-en-1-one oxime]","IVTI, in vitro therapeutic index (Huvec IC50/MCF-7 IC50)",38.33
"COc1ccc2oc(C(=O)/C=C/c3nc(C)c(C)nc3C)cc2c1 [Compound 8d, (E)-1-(5-Methoxybenzofuran-2-yl)-3-(3,5,6-trimethylpyrazin-2-yl)prop-2-en-1-one]","IVTI, in vitro therapeutic index (Huvec IC50/MCF-7 IC50)",12.80
"Cc1nc(C)c(/C=C/C(=O)c2cc3ccccc3s2)nc1C [Compound 8g, (E)-1-(Benzo[b]thiophen-2-yl)-3-(3,5,6-trimethylpyrazin-2-yl)prop-2-en-1-one]","IVTI, in vitro therapeutic index (Huvec IC50/MCF-7 IC50)",8.20
"COc1ccc2oc(C(/C=C/c3nc(C)c(C)nc3C)=N\O)cc2c1 [Compound 10d, (1Z,2E)-1-(5-Methoxybenzofuran-2-yl)-3-(3,5,6-trimethylpyrazin-2-yl)prop-2-en-1-one oxime]","IVTI, in vitro therapeutic index (Huvec IC50/MCF-7 IC50)",28.26
"Cc1nc(C)c(/C=C/C(=O)c2ccco2)nc1C [Compound 8a, (E)-1-(Furan-2-yl)-3-(3,5,6-trimethylpyrazin-2-yl)prop-2-en-1-one]","IVTI, in vitro therapeutic index (Huvec IC50/MCF-7 IC50)",19.72
"Cc1nc(C)c(/C=C/C(=N/O)c2ccc(-c3ccco3)cc2)nc1C [Compound 11a, (1Z,2E)-1-(4-(Furan-2-yl)phenyl)-3-(3,5,6-trimethylpyrazin-2-yl)prop-2-en-1-one oxime]","IVTI, in vitro therapeutic index (Huvec IC50/MCF-7 IC50)",29.26
"Cc1nc(C)c(/C=C/C(=O)c2ccc(-c3cccs3)cc2)nc1C [Compound 9d, (E)-1-(4-(Thiophen-2-yl)phenyl)-3-(3,5,6-trimethylpyrazin-2-yl)prop-2-en-1-one]","IVTI, in vitro therapeutic index (Huvec IC50/MCF-7 IC50)",12.17
"Cc1nc(C)c(/C=C/C(=N/O)c2ccc(-c3cccs3)cc2)nc1C [Compound 11d, (1Z,2E)-1-(4-(Thiophen-2-yl)phenyl)-3-(3,5,6-trimethylpyrazin-2-yl)prop-2-en-1-one oxime]","IVTI, in vitro therapeutic index (Huvec IC50/MCF-7 IC50)",111.39
"Cc1nc(C)c(/C=C/C(=N/O)c2ccc(-c3cc4ccccc4o3)cc2)nc1C [Compound 11c, (1Z,2E)-1-(4-(Benzofuran-2-yl)phenyl)-3-(3,5,6-trimethylpyrazin-2-yl)prop-2-en-1-one oxime]","IVTI, in vitro therapeutic index (Huvec IC50/MCF-7 IC50)",12.36
"Cc1ccc(-c2ccc(C(/C=C/c3nc(C)c(C)nc3C)=N\O)cc2)o1 [Compound 11b, (1Z,2E)-1-(4-(5-Methylfuran-2-yl)phenyl)-3-(3,5,6-trimethylpyrazin-2-yl)prop-2-en-1-one oxime]","IVTI, in vitro therapeutic index (Huvec IC50/MCF-7 IC50)",15.82
"Cc1nc(C)c(/C=C/C(=O)c2ccc(-c3sccc3Cl)cc2)nc1C [Compound 9f, (E)-1-(4-(3-Chlorothiophen-2-yl)phenyl)-3-(3,5,6-trimethylpyrazin-2-yl)prop-2-en-1-one]","IVTI, in vitro therapeutic index (Huvec IC50/MCF-7 IC50)",10.75
"Cc1nc(C)c(/C=C/C(=O)c2ccc(-c3ccc(Br)s3)cc2)nc1C [Compound 9g, (E)-1-(4-(5-Bromothiophen-2-yl)phenyl)-3-(3,5,6-trimethylpyrazin-2-yl)prop-2-en-1-one]","IVTI, in vitro therapeutic index (Huvec IC50/MCF-7 IC50)",12.20
"Cc1nc(C)c(/C=C/C(=N\O)c2ccco2)nc1C [Compound 10a, (1E,2E)-1-(Furan-2-yl)-3-(3,5,6-trimethylpyrazin-2-yl)prop-2-en-1-one oxime]","IVTI, in vitro therapeutic index (Huvec IC50/MCF-7 IC50)",21.69
"Cc1csc(-c2ccc(C(=O)/C=C/c3nc(C)c(C)nc3C)cc2)c1 [Compound 9e, (E)-1-(4-(4-Methylthiophen-2-yl)phenyl)-3-(3,5,6-trimethylpyrazin-2-yl)prop-2-en-1-one]","IVTI, in vitro therapeutic index (Huvec IC50/MCF-7 IC50)",10.79
"Cc1ccc(C(/C=C/c2nc(C)c(C)nc2C)=N\O)s1 [Compound 10f, (1Z,2E)-1-(5-Methylthiophen-2-yl)-3-(3,5,6-trimethylpyrazin-2-yl)prop-2-en-1-one oxime]","IVTI, in vitro therapeutic index (Huvec IC50/MCF-7 IC50)",98.82
"Cc1ccc(C(=O)/C=C/c2nc(C)c(C)nc2C)o1 [Compound 8b, (E)-1-(5-Methylfuran-2-yl)-3-(3,5,6-trimethylpyrazin-2-yl)prop-2-en-1-one]","IVTI, in vitro therapeutic index (Huvec IC50/MCF-7 IC50)",9.20
"Cc1nc(C)c(/C=C/C(=O)c2cccs2)nc1C [Compound 8e, (E)-1-(Thiophen-2-yl)-3-(3,5,6-trimethylpyrazin-2-yl)prop-2-en-1-one]","IVTI, in vitro therapeutic index (Huvec IC50/MCF-7 IC50)",11.01
